We go through one substance from patent EP0927045B1, “TUMOR HOMING MOLECULES, […] THEREFROM, AND METHODS OF USING SAME” (The Burnham Institute, priority 1996, dated 1998).

The series relates to B16B15b mouse melanoma. Put plainly: In vivo panning of phage libraries against a melanoma tumor. The note with it: 89 cloned phage recovered from the B16B15b tumors, three rounds of panning. Also on record: species or system nude mice.

Take WGTGLC: the “share of the clones sequenced” value turned out to be 25%.
